Source: the supplement of paper PMC12823440, “Inhibitors supercharge kinase turnover through native proteolytic circuits” (Nature, 2025)
Where a name gives a salt, the structure may show the parent alone. This is one part of the list. Hit calls seldom repeat between salt and free forms of one compound.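 In K562 cells expressing nanoluciferase-fused kinases, luminescence was recorded at 4 h intervals between 2 and 18 h, normalized as percent of control with DMSO at 100% and a positive control at 0%. A significant (2 sigma) signal drop marks a time point as decreased. The authors' rule for a hit is not shown and takes in more than the number of time points.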

The chains behind the UniProt entries cited, without tags or fusion partners. Where a name states a change or a piece, a line headed by the entry shows the natural chain unless it says otherwise.
UniProt P50613: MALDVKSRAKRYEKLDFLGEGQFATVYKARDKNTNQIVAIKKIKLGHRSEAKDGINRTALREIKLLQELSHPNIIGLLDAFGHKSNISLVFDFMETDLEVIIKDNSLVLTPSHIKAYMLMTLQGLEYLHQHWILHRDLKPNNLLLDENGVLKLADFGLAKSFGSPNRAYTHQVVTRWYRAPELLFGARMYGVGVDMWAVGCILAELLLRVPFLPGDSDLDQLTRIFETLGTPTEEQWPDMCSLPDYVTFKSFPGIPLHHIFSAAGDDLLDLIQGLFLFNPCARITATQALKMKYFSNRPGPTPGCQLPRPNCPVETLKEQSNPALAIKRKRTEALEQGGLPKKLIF
UniProt P50750, whole entry: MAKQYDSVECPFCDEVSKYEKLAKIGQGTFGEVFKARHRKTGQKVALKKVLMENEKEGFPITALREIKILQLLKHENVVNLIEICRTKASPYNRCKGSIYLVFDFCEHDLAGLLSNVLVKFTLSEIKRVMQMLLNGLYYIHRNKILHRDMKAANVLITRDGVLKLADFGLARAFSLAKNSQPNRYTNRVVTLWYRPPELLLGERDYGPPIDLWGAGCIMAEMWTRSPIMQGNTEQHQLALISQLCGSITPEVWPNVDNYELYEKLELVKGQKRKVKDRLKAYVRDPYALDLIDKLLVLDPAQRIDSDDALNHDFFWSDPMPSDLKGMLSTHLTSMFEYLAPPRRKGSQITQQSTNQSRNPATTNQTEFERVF
UniProt O96017, whole entry: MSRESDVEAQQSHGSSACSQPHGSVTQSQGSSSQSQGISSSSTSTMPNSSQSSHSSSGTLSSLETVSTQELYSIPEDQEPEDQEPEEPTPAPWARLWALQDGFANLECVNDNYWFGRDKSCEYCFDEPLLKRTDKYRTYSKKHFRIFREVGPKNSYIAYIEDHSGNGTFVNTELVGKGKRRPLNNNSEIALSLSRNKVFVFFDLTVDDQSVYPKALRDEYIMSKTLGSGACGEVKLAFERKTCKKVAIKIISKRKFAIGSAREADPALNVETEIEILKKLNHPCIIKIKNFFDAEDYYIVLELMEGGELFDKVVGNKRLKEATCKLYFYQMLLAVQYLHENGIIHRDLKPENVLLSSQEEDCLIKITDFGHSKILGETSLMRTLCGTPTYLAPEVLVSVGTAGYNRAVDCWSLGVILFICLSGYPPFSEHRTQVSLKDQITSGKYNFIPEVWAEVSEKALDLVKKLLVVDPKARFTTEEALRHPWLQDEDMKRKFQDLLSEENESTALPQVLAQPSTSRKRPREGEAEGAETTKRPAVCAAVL
UniProt P07333, whole entry: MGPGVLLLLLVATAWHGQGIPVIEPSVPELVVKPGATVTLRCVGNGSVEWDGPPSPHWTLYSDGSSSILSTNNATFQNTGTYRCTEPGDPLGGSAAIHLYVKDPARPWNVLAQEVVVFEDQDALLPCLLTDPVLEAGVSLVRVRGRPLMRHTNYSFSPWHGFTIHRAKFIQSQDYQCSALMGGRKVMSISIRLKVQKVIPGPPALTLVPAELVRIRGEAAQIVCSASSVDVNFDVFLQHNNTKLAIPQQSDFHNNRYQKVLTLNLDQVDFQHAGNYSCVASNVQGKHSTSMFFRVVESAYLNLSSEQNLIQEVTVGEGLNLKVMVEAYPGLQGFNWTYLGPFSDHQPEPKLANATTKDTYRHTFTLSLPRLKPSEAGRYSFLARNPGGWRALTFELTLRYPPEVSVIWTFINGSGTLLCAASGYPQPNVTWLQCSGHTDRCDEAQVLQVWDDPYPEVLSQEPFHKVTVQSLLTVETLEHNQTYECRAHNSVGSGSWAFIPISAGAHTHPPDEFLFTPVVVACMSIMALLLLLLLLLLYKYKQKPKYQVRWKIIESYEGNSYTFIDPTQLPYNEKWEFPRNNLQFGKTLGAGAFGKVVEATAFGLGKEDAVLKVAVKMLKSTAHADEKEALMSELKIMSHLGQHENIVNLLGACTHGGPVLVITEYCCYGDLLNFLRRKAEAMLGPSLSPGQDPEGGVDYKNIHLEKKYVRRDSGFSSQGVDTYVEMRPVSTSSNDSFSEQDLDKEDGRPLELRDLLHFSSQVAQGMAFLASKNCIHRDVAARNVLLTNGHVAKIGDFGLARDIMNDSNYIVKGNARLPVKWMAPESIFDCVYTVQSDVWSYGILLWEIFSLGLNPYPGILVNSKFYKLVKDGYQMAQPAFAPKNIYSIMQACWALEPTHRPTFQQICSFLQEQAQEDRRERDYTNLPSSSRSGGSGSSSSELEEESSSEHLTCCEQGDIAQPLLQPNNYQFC
UniProt P41240: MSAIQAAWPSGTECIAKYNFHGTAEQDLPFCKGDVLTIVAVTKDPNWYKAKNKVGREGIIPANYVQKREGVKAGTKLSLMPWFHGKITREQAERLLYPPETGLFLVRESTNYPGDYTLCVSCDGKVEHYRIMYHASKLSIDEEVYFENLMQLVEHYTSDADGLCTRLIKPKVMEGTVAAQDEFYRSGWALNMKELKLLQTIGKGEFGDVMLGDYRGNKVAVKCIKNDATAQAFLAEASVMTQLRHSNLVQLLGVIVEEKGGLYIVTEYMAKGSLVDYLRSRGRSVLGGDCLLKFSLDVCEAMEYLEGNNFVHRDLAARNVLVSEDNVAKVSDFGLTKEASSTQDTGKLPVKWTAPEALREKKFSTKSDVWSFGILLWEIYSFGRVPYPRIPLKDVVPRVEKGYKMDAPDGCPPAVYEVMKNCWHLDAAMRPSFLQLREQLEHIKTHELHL
UniProt P48729: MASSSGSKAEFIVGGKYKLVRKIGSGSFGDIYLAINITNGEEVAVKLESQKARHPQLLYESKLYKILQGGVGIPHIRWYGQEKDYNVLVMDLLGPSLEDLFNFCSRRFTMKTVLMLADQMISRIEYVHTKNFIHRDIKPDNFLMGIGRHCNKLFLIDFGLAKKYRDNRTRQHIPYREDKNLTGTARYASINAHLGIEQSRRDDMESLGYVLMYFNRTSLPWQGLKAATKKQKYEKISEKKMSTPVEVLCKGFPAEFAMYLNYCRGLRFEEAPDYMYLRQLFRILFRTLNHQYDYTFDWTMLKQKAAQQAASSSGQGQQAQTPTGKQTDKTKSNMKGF
UniProt P48730: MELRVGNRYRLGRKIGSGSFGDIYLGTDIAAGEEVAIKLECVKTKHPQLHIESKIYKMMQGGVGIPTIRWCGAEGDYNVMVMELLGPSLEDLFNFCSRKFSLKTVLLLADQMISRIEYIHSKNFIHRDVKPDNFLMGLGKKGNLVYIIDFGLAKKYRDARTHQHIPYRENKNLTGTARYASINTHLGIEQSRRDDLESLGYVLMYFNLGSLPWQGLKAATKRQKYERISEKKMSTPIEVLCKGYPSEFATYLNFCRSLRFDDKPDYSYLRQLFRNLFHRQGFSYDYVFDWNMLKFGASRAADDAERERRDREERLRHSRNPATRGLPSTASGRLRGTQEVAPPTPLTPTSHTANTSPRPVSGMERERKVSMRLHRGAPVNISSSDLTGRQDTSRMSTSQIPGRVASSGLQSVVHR
UniProt Q9Y463, whole entry, looked up: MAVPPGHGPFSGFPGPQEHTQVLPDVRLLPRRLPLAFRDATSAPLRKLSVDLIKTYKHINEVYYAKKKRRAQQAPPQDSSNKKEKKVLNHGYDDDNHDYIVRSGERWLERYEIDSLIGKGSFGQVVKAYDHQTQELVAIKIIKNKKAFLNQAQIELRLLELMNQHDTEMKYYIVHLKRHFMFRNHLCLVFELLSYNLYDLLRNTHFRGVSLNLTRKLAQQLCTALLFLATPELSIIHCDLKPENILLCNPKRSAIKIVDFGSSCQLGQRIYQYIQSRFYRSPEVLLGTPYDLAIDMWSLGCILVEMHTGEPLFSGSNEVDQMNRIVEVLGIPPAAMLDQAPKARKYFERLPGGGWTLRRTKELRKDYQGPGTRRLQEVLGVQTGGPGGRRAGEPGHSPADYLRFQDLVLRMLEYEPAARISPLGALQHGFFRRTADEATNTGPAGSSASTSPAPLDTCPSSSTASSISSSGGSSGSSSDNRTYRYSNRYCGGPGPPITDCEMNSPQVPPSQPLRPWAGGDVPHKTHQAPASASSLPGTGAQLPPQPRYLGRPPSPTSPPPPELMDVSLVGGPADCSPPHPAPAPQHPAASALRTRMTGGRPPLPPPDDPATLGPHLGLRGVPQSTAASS
UniProt P29317, whole entry: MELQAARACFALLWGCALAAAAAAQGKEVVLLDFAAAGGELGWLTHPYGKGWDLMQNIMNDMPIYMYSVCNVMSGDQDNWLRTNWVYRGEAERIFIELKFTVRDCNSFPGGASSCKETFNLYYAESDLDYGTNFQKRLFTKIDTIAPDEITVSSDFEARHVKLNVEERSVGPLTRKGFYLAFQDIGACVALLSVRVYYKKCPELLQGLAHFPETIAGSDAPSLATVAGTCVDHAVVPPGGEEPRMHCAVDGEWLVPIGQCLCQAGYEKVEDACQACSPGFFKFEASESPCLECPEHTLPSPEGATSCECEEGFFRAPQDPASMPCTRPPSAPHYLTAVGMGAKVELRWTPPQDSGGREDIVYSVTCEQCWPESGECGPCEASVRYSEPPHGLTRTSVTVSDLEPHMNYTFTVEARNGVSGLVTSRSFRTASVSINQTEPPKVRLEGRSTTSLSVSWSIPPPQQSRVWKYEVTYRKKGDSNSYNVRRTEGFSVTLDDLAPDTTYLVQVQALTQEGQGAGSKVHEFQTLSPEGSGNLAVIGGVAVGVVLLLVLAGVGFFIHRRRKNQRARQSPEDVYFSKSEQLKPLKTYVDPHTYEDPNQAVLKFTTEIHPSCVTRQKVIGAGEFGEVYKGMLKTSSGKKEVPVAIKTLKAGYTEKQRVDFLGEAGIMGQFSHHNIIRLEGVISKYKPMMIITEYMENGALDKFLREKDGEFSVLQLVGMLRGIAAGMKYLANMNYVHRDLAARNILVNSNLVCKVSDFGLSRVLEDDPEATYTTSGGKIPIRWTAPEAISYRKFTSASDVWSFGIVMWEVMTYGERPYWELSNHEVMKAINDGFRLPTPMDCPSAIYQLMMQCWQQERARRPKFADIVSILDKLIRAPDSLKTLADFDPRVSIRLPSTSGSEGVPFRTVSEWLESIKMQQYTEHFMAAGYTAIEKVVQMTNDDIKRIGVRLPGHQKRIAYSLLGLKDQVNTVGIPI
UniProt Q15303, whole entry R711C: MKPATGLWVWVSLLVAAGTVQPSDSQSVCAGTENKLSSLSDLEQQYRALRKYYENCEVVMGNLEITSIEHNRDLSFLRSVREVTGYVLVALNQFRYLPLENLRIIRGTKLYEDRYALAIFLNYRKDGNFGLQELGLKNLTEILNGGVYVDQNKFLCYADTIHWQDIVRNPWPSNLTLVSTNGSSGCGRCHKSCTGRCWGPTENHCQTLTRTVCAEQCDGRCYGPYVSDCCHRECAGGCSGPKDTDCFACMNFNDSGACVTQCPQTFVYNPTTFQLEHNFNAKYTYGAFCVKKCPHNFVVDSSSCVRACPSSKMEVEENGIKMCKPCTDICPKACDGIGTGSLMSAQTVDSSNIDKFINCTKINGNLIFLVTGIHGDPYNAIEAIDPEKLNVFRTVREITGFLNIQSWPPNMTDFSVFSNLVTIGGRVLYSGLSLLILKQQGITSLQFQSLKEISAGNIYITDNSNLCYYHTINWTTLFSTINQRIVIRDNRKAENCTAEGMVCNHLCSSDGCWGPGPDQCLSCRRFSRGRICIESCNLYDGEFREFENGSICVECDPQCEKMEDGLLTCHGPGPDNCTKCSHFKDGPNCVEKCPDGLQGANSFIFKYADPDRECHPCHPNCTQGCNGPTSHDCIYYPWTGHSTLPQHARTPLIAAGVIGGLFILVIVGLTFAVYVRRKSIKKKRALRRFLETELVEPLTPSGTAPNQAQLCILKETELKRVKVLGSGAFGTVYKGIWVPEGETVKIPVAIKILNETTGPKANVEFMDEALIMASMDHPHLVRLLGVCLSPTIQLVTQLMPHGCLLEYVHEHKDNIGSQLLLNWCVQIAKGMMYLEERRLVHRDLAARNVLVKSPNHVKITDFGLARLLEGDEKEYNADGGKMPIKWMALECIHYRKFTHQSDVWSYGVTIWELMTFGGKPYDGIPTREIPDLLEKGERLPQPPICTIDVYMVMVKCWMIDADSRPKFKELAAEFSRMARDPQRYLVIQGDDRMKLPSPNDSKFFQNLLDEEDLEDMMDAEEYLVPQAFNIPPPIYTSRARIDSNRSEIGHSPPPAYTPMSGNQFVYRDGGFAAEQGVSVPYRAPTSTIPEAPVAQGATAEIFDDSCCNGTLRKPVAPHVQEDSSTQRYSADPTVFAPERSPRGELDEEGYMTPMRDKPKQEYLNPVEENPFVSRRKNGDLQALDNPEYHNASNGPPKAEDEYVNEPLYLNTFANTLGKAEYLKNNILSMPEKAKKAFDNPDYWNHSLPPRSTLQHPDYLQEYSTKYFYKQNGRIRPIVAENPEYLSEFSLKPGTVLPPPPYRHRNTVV

Legend:
Experiment in all cases: kinase-Nluc reporter destabilization hit call (1 = scored as downregulated) (binary); higher = compound decreases kinase abundance
Conditions in all cases: K562; 2-18 h
CDK7 = CDK7 (UniProt P50613)
CDK9 = CDK9 (UniProt P50750)
CHEK2 = CHEK2 (UniProt O96017)
CSF1R = CSF1R (UniProt P07333)
CSK = CSK (UniProt P41240)
CSNK1A1 = CSNK1A1 (UniProt P48729)
CSNK1D = CSNK1D (UniProt P48730)
DDR1 = DDR1 (UniProt Q08345)
DYRK1B = DYRK1B (UniProt Q9Y463)
DYRK2 = DYRK2 (UniProt Q92630)
EGFR = EGFR (UniProt P00533)
EGFR_G719S = EGFR_G719S (UniProt P00533)
EGFR_G719S_T790M = EGFR_G719S_T790M (UniProt P00533)
EGFR_L718V = EGFR_L718V (UniProt P00533)
EGFR_L858R = EGFR_L858R (UniProt P00533)
EGFR_L861Q = EGFR_L861Q (UniProt P00533)
EGFR_T790M = EGFR_T790M (UniProt P00533)
EPHA2 = EPHA2 (UniProt P29317)
ERBB3 = ERBB3 (UniProt P21860)
[1] = target: ERBB4_R711C (clone: ERBB4_mut) (UniProt Q15303)

Measured: kinase-Nluc reporter destabilization hit call

CC[C@@H](N)CNc1ccnc(-c2cc(-c3cnn(C)c3)ccc2O)n1 (2.5 µM)
inactive: CDK7 = 0 | CDK9 = 0 | CHEK2 = 0 | CSF1R 0 | CSK 0 | CSNK1A1 = 0 | CSNK1D 0 | DDR1 = 0 | DYRK1B 0 | DYRK2 = 0 | EGFR 0 | EGFR_G719S 0 | EGFR_G719S_T790M 0 | EGFR_L718V 0 | EGFR_L858R 0 | EGFR_L861Q 0 | EGFR_T790M 0 | EPHA2 = 0 | ERBB3 = 0 | [1] 0

Cc1cc2cc(Oc3ccnc(Nc4cccc(CS(=O)(=O)NCCN(C)C)c4)n3)ccc2[nH]1 [Sulfatinib] (10 µM)
inactive: CDK7 = 0 | CDK9 = 0 | CHEK2 = 0 | CSF1R 0 | CSK 0 | CSNK1A1 = 0 | CSNK1D 0 | DDR1 = 0 | DYRK1B 0 | DYRK2 = 0 | EGFR 0 | EGFR_G719S 0 | EGFR_G719S_T790M 0 | EGFR_L718V 0 | EGFR_L858R 0 | EGFR_L861Q 0 | EGFR_T790M 0 | EPHA2 = 0 | ERBB3 = 0 | [1] 0

CCOC(=O)c1c2c3c(cccc3[nH]c1=O)C(=O)c1ccccc1-2 (10 µM)
inactive: CDK7 = 0 | CDK9 = 0 | CHEK2 = 0 | CSF1R 0 | CSK 0 | CSNK1A1 = 0 | CSNK1D 0 | DDR1 = 0 | DYRK1B 0 | DYRK2 = 0 | EGFR 0 | EGFR_G719S 0 | EGFR_G719S_T790M 0 | EGFR_L718V 0 | EGFR_L858R 0 | EGFR_L861Q 0 | EGFR_T790M 0 | EPHA2 = 0 | ERBB3 = 0 | [1] 0

NS(=O)(=O)c1ccc(N2N=C(c3ccccc3)CC2c2ccccc2)cc1 (stereo not given) (10 µM)
inactive: CDK7 = 0 | CDK9 = 0 | CHEK2 = 0 | CSF1R 0 | CSK 0 | CSNK1A1 = 0 | CSNK1D 0 | DDR1 = 0 | DYRK1B 0 | DYRK2 = 0 | EGFR 0 | EGFR_G719S 0 | EGFR_G719S_T790M 0 | EGFR_L718V 0 | EGFR_L858R 0 | EGFR_L861Q 0 | EGFR_T790M 0 | EPHA2 = 0 | ERBB3 = 0 | [1] 0

O=C(O)c1ccc(N2N=C(Cc3ccccc3)C(=Cc3ccc(-c4ccccc4F)o3)C2=O)cc1 (10 µM)
inactive: CDK7 = 0 | CDK9 = 0 | CHEK2 = 0 | CSF1R 0 | CSK 0 | CSNK1A1 = 0 | CSNK1D 0 | DDR1 = 0 | DYRK1B 0 | DYRK2 = 0 | EGFR 0 | EGFR_G719S 0 | EGFR_G719S_T790M 0 | EGFR_L718V 0 | EGFR_L858R 0 | EGFR_L861Q 0 | EGFR_T790M 0 | EPHA2 = 0 | ERBB3 = 0 | [1] 0

COc1cc(N2CCC(O)CC2)ccc1Nc1cc(Nc2ccccc2S(=O)(=O)C(C)C)c2cc[nH]c2n1 (10 µM)
inactive: CDK7 = 0 | CDK9 = 0 | CHEK2 = 0 | CSF1R 0 | CSK 0 | CSNK1A1 = 0 | CSNK1D 0 | DDR1 = 0 | DYRK1B 0 | DYRK2 = 0 | EGFR 0 | EGFR_G719S 0 | EGFR_G719S_T790M 0 | EGFR_L718V 0 | EGFR_L858R 0 | EGFR_L861Q 0 | EGFR_T790M 0 | EPHA2 = 0 | ERBB3 = 0 | [1] 0

O=[N+]([O-])c1ccc(Sc2cccc[n+]2[O-])c2nonc12 (2.5 µM)
inactive: CDK7 = 0 | CDK9 = 0 | CHEK2 = 0 | CSF1R 0 | CSK 0 | CSNK1A1 = 0 | CSNK1D 0 | DDR1 = 0 | DYRK1B 0 | DYRK2 = 0 | EGFR 0 | EGFR_G719S 0 | EGFR_G719S_T790M 0 | EGFR_L718V 0 | EGFR_L858R 0 | EGFR_L861Q 0 | EGFR_T790M 0 | EPHA2 = 0 | ERBB3 = 0 | [1] 0

For reference, 2 of the compounds above:
O=C(O)c1ccc(N2N=C(Cc3ccccc3)C(=Cc3ccc(-c4ccccc4F)o3)C2=O)cc1 (10 µM)
inactive: CDK7 = 0 | CDK9 = 0 | CHEK2 = 0 | CSF1R 0 | CSK 0 | CSNK1A1 = 0 | CSNK1D 0 | DDR1 = 0 | DYRK1B 0 | DYRK2 = 0 | EGFR 0 | EGFR_G719S 0 | EGFR_G719S_T790M 0 | EGFR_L718V 0 | EGFR_L858R 0 | EGFR_L861Q 0 | EGFR_T790M 0 | EPHA2 = 0 | ERBB3 = 0 | [1] 0

COc1cc(N2CCC(O)CC2)ccc1Nc1cc(Nc2ccccc2S(=O)(=O)C(C)C)c2cc[nH]c2n1 (10 µM)
inactive: CDK7 = 0 | CDK9 = 0 | CHEK2 = 0 | CSF1R 0 | CSK 0 | CSNK1A1 = 0 | CSNK1D 0 | DDR1 = 0 | DYRK1B 0 | DYRK2 = 0 | EGFR 0 | EGFR_G719S 0 | EGFR_G719S_T790M 0 | EGFR_L718V 0 | EGFR_L858R 0 | EGFR_L861Q 0 | EGFR_T790M 0 | EPHA2 = 0 | ERBB3 = 0 | [1] 0

Going on with the list.

N=C(N)NC(=N)NCCc1ccccc1 [Phenformin (hydrochloride)] (10 µM)
inactive: CDK7 = 0 | CDK9 = 0 | CHEK2 = 0 | CSF1R 0 | CSK 0 | CSNK1A1 = 0 | CSNK1D 0 | DDR1 = 0 | DYRK1B 0 | DYRK2 = 0 | EGFR 0 | EGFR_G719S 0 | EGFR_G719S_T790M 0 | EGFR_L718V 0 | EGFR_L858R 0 | EGFR_L861Q 0 | EGFR_T790M 0 | EPHA2 = 0 | ERBB3 = 0 | [1] 0

Oc1ccccc1C(=S)N1CCCC1 (10 µM)
inactive: CDK7 = 0 | CDK9 = 0 | CHEK2 = 0 | CSF1R 0 | CSK 0 | CSNK1A1 = 0 | CSNK1D 0 | DDR1 = 0 | DYRK1B 0 | DYRK2 = 0 | EGFR 0 | EGFR_G719S 0 | EGFR_G719S_T790M 0 | EGFR_L718V 0 | EGFR_L858R 0 | EGFR_L861Q 0 | EGFR_T790M 0 | EPHA2 = 0 | ERBB3 = 0 | [1] 0

N#Cc1ccc(-c2c(-c3ncn[nH]3)sc(N3CCOCC3)c2C#N)c(F)c1 (10 µM)
inactive: CDK7 = 0 | CDK9 = 0 | CHEK2 = 0 | CSF1R 0 | CSK 0 | CSNK1A1 = 0 | CSNK1D 0 | DDR1 = 0 | DYRK1B 0 | DYRK2 = 0 | EGFR 0 | EGFR_G719S 0 | EGFR_G719S_T790M 0 | EGFR_L718V 0 | EGFR_L858R 0 | EGFR_L861Q 0 | EGFR_T790M 0 | EPHA2 = 0 | ERBB3 = 0 | [1] 0

COc1ccc2c(Oc3ccc(NC(=O)c4c(C)n(CC(C)(C)O)n(-c5ccccc5)c4=O)cc3F)ccnc2c1 (2.5 µM)
inactive: CDK7 = 0 | CDK9 = 0 | CHEK2 = 0 | CSF1R 0 | CSK 0 | CSNK1A1 = 0 | CSNK1D 0 | DDR1 = 0 | DYRK1B 0 | DYRK2 = 0 | EGFR 0 | EGFR_G719S 0 | EGFR_G719S_T790M 0 | EGFR_L718V 0 | EGFR_L858R 0 | EGFR_L861Q 0 | EGFR_T790M 0 | EPHA2 = 0 | ERBB3 = 0 | [1] 0

O=C1NCCCc2c1oc1ccc(O)cc21 (10 µM)
inactive: CDK7 = 0 | CDK9 = 0 | CHEK2 = 0 | CSF1R 0 | CSK 0 | CSNK1A1 = 0 | CSNK1D 0 | DDR1 = 0 | DYRK1B 0 | DYRK2 = 0 | EGFR 0 | EGFR_G719S 0 | EGFR_G719S_T790M 0 | EGFR_L718V 0 | EGFR_L858R 0 | EGFR_L861Q 0 | EGFR_T790M 0 | EPHA2 = 0 | ERBB3 = 0 | [1] 0
